Measurements published in PMC5041986 (Oncotarget, 2016).

Tested on: RT-112 cells
Assay: cDNA microarray analysis of differential gene expression
Type: cell-based
Details: 4 μM, 8 h, log2 |fold change| ≥ 1, P < 0.05

Structure (SMILES): CCN1CCN(c2ccc(Nc3ncnc(N(C)C(=O)Nc4c(Cl)c(OC)c(Cl)c(OC)c4Cl)n3)cc2)CC1 [MPT0L145]
- number of downregulated genes: 426
- number of upregulated genes: 465
